This is one part of the list.

Amino acid sequences for entries named in this document (tags omitted). A change or cut given only in a name is not applied to a line headed by its entry.
UniProt Q99536: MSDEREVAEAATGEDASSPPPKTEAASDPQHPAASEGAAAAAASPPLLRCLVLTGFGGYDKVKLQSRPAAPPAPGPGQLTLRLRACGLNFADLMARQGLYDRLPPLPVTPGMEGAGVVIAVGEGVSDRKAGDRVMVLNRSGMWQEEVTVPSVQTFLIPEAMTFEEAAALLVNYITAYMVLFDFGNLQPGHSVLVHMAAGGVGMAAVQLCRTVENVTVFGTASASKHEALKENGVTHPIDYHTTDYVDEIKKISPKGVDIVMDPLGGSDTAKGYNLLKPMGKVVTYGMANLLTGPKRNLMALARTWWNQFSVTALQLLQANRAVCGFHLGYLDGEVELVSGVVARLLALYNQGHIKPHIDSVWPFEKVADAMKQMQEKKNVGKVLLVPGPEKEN
UniProt Q96S82: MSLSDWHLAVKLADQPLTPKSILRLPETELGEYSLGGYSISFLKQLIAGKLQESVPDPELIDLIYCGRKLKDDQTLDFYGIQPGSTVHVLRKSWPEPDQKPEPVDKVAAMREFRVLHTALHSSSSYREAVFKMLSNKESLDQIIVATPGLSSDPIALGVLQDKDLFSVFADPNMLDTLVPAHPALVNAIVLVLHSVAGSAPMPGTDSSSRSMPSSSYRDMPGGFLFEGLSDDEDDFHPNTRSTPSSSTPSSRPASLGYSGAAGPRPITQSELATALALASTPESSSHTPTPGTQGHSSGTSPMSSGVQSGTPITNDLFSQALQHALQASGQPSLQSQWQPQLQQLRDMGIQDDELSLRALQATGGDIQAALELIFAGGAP
UniProt Q14694, whole entry, looked up: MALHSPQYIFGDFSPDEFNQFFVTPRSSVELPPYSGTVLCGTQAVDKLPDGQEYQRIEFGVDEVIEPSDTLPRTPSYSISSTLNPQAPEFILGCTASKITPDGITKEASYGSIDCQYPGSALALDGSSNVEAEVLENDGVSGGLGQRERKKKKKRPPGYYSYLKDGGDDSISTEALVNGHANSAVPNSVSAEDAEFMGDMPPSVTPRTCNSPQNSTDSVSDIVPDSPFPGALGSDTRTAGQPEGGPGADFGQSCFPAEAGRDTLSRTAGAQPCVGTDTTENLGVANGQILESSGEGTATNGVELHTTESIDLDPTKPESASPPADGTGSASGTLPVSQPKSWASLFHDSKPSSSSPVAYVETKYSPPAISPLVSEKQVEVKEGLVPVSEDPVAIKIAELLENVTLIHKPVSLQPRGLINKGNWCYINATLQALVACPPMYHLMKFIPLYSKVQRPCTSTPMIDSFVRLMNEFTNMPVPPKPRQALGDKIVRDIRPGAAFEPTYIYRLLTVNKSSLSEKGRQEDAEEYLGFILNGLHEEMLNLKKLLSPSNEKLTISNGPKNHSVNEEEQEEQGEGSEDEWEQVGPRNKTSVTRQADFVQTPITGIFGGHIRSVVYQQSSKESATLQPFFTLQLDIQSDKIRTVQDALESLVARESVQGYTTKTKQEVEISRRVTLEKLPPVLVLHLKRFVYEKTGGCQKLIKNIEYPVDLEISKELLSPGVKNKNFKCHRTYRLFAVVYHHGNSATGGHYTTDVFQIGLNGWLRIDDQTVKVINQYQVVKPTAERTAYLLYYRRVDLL
UniProt O94888: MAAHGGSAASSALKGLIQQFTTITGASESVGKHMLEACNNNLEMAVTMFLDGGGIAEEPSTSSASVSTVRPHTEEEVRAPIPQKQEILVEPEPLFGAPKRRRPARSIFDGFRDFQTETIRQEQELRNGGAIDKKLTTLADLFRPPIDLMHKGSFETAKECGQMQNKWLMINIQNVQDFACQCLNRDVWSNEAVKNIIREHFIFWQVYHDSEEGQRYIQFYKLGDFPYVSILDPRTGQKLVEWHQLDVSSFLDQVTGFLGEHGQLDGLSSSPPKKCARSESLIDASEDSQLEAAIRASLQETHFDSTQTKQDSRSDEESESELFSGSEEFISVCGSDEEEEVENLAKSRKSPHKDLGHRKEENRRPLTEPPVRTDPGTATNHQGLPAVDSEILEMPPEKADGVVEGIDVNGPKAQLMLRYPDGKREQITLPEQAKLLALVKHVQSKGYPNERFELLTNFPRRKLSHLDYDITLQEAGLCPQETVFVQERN
UniProt O94966: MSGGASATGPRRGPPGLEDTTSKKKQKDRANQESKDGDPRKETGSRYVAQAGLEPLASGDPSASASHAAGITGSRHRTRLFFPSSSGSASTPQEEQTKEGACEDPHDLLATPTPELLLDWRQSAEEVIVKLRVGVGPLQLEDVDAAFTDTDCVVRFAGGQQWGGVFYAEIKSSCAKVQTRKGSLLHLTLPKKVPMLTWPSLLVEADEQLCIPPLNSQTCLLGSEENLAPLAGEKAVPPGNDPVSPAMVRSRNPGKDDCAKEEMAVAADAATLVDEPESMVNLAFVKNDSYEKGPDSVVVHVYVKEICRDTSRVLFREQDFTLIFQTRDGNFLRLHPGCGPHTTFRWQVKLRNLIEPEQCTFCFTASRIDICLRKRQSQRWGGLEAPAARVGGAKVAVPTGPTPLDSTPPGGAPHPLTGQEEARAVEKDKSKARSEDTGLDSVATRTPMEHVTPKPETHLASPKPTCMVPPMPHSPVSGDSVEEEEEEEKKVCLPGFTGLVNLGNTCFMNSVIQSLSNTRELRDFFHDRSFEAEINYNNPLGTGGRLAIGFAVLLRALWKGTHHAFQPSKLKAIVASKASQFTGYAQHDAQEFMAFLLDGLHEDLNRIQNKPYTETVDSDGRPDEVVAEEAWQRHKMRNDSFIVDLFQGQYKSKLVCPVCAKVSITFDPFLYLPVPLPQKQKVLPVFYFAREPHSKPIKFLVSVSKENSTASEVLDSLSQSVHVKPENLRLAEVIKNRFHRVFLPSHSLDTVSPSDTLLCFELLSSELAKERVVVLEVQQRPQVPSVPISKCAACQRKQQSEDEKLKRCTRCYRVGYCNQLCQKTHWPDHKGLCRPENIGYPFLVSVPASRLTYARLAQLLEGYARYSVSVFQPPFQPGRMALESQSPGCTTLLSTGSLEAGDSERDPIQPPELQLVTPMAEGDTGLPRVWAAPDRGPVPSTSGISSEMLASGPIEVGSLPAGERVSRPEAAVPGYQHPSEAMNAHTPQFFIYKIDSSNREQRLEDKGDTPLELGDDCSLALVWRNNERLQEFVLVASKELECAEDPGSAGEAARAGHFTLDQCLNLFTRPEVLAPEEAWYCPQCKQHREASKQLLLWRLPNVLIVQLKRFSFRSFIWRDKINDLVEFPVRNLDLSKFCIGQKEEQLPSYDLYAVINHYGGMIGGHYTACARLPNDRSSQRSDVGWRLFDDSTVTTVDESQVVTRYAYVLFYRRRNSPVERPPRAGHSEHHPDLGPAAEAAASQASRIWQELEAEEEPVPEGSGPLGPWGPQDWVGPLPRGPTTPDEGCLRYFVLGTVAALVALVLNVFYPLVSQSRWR
UniProt Q9BZL1: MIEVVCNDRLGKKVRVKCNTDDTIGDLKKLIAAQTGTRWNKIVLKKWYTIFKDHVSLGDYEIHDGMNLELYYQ
UniProt P07919: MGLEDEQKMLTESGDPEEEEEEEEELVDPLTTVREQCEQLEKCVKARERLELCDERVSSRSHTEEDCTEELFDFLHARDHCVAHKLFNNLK
UniProt P10746: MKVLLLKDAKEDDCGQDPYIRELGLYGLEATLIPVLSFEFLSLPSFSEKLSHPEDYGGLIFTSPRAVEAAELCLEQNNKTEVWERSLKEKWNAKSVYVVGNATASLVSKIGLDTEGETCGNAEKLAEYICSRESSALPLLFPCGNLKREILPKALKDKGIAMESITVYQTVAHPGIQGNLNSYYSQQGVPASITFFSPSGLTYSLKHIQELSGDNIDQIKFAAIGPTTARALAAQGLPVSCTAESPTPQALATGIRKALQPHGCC
UniProt Q7Z6J8: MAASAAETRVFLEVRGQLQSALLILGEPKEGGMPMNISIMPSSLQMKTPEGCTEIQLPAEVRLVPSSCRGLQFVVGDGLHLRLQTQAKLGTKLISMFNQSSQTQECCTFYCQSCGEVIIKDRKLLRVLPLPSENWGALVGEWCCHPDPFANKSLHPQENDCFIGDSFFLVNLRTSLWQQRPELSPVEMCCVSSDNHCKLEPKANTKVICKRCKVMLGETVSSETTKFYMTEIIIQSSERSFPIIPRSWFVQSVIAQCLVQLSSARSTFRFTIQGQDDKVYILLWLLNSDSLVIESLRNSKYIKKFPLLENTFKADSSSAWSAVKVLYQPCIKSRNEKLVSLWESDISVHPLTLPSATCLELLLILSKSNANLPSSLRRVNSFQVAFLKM
UniProt Q9UMX0, whole entry, looked up: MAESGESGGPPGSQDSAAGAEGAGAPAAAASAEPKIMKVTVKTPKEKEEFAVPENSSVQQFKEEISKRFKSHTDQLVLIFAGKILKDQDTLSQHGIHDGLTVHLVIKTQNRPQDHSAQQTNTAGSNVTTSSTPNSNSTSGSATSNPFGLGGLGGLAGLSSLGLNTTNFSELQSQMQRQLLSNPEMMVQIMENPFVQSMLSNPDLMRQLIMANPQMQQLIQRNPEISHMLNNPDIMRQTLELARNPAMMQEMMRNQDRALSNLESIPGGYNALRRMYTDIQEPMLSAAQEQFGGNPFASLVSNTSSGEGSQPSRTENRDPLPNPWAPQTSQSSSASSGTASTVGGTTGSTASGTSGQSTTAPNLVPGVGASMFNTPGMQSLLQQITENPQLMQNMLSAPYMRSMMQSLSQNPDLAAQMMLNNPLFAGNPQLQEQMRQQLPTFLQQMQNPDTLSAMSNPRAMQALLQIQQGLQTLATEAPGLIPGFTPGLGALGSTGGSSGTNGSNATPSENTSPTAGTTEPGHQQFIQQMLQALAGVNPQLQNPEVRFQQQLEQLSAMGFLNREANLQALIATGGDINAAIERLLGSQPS
UniProt O14949: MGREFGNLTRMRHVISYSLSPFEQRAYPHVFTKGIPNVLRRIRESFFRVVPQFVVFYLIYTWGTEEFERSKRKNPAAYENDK
UniProt Q92890: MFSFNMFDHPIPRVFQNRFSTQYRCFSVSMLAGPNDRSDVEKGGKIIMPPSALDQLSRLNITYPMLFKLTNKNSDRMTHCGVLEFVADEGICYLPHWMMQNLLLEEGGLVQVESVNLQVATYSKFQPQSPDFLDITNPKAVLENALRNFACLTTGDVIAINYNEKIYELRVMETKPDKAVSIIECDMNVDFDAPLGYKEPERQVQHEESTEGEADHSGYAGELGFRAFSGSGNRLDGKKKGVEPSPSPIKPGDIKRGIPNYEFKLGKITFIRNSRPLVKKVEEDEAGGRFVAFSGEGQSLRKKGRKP
UniProt Q9H3U1: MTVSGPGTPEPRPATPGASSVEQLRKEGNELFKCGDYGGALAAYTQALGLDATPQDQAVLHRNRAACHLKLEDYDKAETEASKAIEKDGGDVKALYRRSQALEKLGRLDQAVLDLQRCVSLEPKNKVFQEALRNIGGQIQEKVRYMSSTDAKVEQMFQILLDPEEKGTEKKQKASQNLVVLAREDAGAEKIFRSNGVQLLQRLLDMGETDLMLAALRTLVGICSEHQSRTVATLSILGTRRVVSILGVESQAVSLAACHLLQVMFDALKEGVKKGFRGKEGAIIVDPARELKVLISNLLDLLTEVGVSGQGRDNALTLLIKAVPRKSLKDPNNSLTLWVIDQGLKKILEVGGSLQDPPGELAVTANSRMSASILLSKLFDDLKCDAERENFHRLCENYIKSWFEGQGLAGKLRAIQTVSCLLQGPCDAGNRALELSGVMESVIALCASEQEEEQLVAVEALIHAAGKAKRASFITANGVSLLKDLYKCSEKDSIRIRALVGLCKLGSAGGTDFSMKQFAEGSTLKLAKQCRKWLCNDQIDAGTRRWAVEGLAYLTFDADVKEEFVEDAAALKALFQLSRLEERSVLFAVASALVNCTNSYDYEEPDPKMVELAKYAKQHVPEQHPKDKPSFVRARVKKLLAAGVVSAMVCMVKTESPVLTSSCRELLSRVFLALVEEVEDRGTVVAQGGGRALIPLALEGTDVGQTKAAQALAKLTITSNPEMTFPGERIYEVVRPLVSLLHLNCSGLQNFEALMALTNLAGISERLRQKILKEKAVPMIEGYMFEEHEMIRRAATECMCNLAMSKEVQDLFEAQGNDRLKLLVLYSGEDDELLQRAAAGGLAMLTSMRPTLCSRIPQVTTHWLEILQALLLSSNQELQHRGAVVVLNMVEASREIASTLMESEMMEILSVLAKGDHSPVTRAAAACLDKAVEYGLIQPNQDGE
UniProt Q9UDW1: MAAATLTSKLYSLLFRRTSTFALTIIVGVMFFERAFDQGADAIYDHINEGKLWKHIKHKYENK
UniProt Q04323: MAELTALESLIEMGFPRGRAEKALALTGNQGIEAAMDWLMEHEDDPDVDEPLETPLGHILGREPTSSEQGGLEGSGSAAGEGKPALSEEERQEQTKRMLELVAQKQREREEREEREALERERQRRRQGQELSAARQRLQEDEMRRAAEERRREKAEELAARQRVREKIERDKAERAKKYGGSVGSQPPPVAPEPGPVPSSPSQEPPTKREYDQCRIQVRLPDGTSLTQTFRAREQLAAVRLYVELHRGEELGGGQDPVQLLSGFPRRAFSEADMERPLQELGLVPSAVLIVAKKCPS
UniProt P14927: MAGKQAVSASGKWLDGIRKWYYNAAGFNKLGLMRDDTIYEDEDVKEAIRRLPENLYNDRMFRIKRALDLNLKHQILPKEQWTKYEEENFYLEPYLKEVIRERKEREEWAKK

Compound in this experiment: C1CN(CCC1(CC2=CC=C(C=C2)Cl)N)C3=NC=NC4=C3C=CN4
Put plainly: log2 fold change, soluble protein after heating vs DMSO (PISA); higher = thermal stabilisation; K562 cells, 10 uM, 30 min; active = over 0.2 and 3.5 SD of the protein, either way, in both replicates (recomputed). The method in brief: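 K562 cells at 2×10^6 cells/mL were treated for 30 min with 10 μM compound, and aliquots were heated for 3 min over 48°C-58°C before pooling. Extraction used PBS with 0.5% NP-40 at 4°C, and soluble protein was the supernatant after 21,000xg for 90 min, measured by TMTpro 16plex LC-MS/MS with channel sums equalised. Thermal stability values, relative to control samples and from duplicates, are log2 fold changes.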
Regarding VANGL1 (UniProt Q8TAA9), the log2 fold change was inactive: 0.104.

Regarding URGCP (UniProt Q8TCY9), the log2 fold change is inactive: 0.042.

As for VAT1 (UniProt Q99536), the log2 fold change was inactive: 0.064.

For the target UBL7 (UniProt Q96S82), the log2 fold change is inactive: -0.084.

On to USP10 isoform 2 (UniProt Q14694), for which the log2 fold change is inactive: -0.013.

With UBXN7 (UniProt O94888), the log2 fold change is inactive: 0.029.

As for USP19 isoform 6 (UniProt O94966), the log2 fold change is inactive: 0.018.

As for UBL5 (UniProt Q9BZL1), the log2 fold change is inactive: -0.009.

In the case of UQCRH (UniProt P07919), the log2 fold change is inactive: -0.027.

As to UROS (UniProt P10746), the log2 fold change was inactive: 0.011.

With UBR5 (UniProt O95071), the log2 fold change was inactive: -0.101.

For the target UBE3D (UniProt Q7Z6J8), the log2 fold change is inactive: 0.079.

As for UFL1 (UniProt O94874), the log2 fold change was inactive: -0.101.

Consider UTP14A (UniProt Q9BVJ6), for which the log2 fold change is inactive: -0.155.

UBQLN1 (UniProt Q9UMX0): the log2 fold change was inactive: 0.004.

On to UQCRQ (UniProt O14949), for which the log2 fold change was inactive: 0.056.

UFD1 isoform 1 (UniProt Q92890): the log2 fold change is inactive: 0.024.

As for UNC45A (UniProt Q9H3U1), the log2 fold change was inactive: -0.138.

Regarding UQCR10 (UniProt Q9UDW1), the log2 fold change was inactive: 0.

As to UBXN1 (UniProt Q04323), the log2 fold change is inactive: -0.009.

Regarding VARS (UniProt P26640), the log2 fold change was inactive: -0.049.

In the case of UQCRB (UniProt P14927), the log2 fold change was inactive: 0.018.

On to USP47 (UniProt Q96K76), for which the log2 fold change was inactive: -0.124.
